We go through 16 molecules from US20200270352A1.

No constants are given. Whether binding was seen depends on the method and setting. Binding calls can cover weak binding; strength is not graded here.

B1: humanized antibody hz208F2 VH3/VL3 (hz208F2 H026/L024) (antibody, human IgG1, kappa, V domains shown)
VH: QVQLVQSGAEVKKPGASVKMSCKASGYTFTSYYIYWVKQAPGQGLEWLGWIWPGDGSTKYNEKFQGRVTLTADKSSNTAYMFLSSLRSEDTAVYFCASPMITPNYAMDYWGQGTLVTVSS
VL: DIQMTQSPSSLSASVGDRVTISCRASQDISKYLNWYQQKPGKAPKLLIYYTSRLHSGVPSRFSGRGSGTDYSLTISNLQPEDFATYFCQQGSTLPYTFGGGTKVEIKR
B2: humanized antibody hz208F2 H057/L018 (antibody, human IgG1, kappa, V domains shown)
VH: QVQLVQSGAEVKKPGASVKVSCKASGYTFTSYYIHWVRQAPGQGLEWMGWIWPGDGSTKYAQKFQGRVTMTRDKSTNTVYMELSSLRSEDTAVYYCASPMITPNYAMDYWGQGTLVTVSS
VL: DIQMTQSPSSLSASVGDRVTITCRASQDISKYLNWYQQKPGKAPKLLIYYTSRLQSGVPSRFSGRGSGTDYSLTISSLQPEDFATYFCQQGSTLPYTFGGGTKVEIKR
B3: humanized antibody hz208F2 H052/L021 (antibody, human IgG1, kappa, V domains shown)
VH: QVQLVQSGAEVKKPGASVKVSCKASGYTFTSYYMHWVRQAPGQGLEWMGWIWPGDGSTKYAQKFQGRVTMTRDTSTSTVYMELSSLRSEDTAVYFCASPMITPNYAMDYWGQGTLVTVSS
VL: DIQMTQSPSSLSASVGDRVTITCRASQDISKYLNWYQQKPGKAPKLLIYYTSRLHSGVPSRFSGRGSGTDFSLTISSLQPEDFATYFCQQGSTLPYTFGGGTKVEIKR
B4: humanized antibody hz208F2 H037/L021 (antibody, human IgG1, kappa, V domains shown)
VH: QVQLVQSGAEVKKPGASVKVSCKASGYTFTSYYMHWVRQAPGQGLEWMGWIWPGDGSTKYAQKFQGRVTMTRDKSSSTVYMELSSLRSEDTAVYFCASPMITPNYAMDYWGQGTLVTVSS
VL: DIQMTQSPSSLSASVGDRVTITCRASQDISKYLNWYQQKPGKAPKLLIYYTSRLHSGVPSRFSGRGSGTDFSLTISSLQPEDFATYFCQQGSTLPYTFGGGTKVEIKR
B5: humanized antibody hz208F2 H068/L018 (antibody, human IgG1, kappa, V domains shown)
VH: QVQLVQSGAEVKKPGASVKVSCKASGYTFTSYYMHWVRQAPGQGLEWMGWIWPGDGSTKYAQKFQGRVTMTRDTSTNTVYMELSSLRSEDTAVYFCASPMITPNYAMDYWGQGTLVTVSS
VL: DIQMTQSPSSLSASVGDRVTITCRASQDISKYLNWYQQKPGKAPKLLIYYTSRLQSGVPSRFSGRGSGTDYSLTISSLQPEDFATYFCQQGSTLPYTFGGGTKVEIKR
B6: humanized antibody hz208F2 H076/L021 (antibody, human IgG1, kappa, V domains shown)
VH: QVQLVQSGAEVKKPGASVKVSCKASGYTFTSYYIHWVRQAPGQGLEWMGWIWPGDGSTKYAQKFQGRVTMTRDTSTSTVYMELSSLRSEDTAVYYCASPMITPNYAMDYWGQGTLVTVSS
VL: DIQMTQSPSSLSASVGDRVTITCRASQDISKYLNWYQQKPGKAPKLLIYYTSRLHSGVPSRFSGRGSGTDFSLTISSLQPEDFATYFCQQGSTLPYTFGGGTKVEIKR
B7: humanized antibody hz208F2 H071/L018 (antibody, human IgG1, kappa, V domains shown)
VH: QVQLVQSGAEVKKPGASVKVSCKASGYTFTSYYMHWVRQAPGQGLEWMGWIWPGDGSTKYAQKFQGRVTMTRDTSTNTVYMELSSLRSEDTAVYYCASPMITPNYAMDYWGQGTLVTVSS
VL: DIQMTQSPSSLSASVGDRVTITCRASQDISKYLNWYQQKPGKAPKLLIYYTSRLQSGVPSRFSGRGSGTDYSLTISSLQPEDFATYFCQQGSTLPYTFGGGTKVEIKR
B8: humanized antibody hz208F2 H049/L018 (antibody, human IgG1, kappa, V domains shown)
VH: QVQLVQSGAEVKKPGASVKVSCKASGYTFTSYYMHWVRQAPGQGLEWMGWIWPGDGSTKYAQKFQGRVTMTRDKSSSTVYMELSSLRSEDTAVYYCASPMITPNYAMDYWGQGTLVTVSS
VL: DIQMTQSPSSLSASVGDRVTITCRASQDISKYLNWYQQKPGKAPKLLIYYTSRLQSGVPSRFSGRGSGTDYSLTISSLQPEDFATYFCQQGSTLPYTFGGGTKVEIKR
B9: humanized antibody hz208F2 H077/L018 (antibody, human IgG1, kappa, V domains shown)
VH: QVQLVQSGAEVKKPGASVKVSCKASGYTFTSYYIHWVRQAPGQGLEWMGWIWPGDGSTKYAQKFQGRVTMTRDTSTSTVYMELSSLRSEDTAVYFCASPMITPNYAMDYWGQGTLVTVSS
VL: DIQMTQSPSSLSASVGDRVTITCRASQDISKYLNWYQQKPGKAPKLLIYYTSRLQSGVPSRFSGRGSGTDYSLTISSLQPEDFATYFCQQGSTLPYTFGGGTKVEIKR
B10: humanized antibody hz208F2 H070/L018 (antibody, human IgG1, kappa, V domains shown)
VH: QVQLVQSGAEVKKPGASVKVSCKASGYTFTSYYMHWVRQAPGQGLEWMGWIWPGDGSTKYAQKFQGRVTMTRDTSTSTVYMELSSLRSEDTAVYYCASPMITPNYAMDYWGQGTLVTVSS
VL: DIQMTQSPSSLSASVGDRVTITCRASQDISKYLNWYQQKPGKAPKLLIYYTSRLQSGVPSRFSGRGSGTDYSLTISSLQPEDFATYFCQQGSTLPYTFGGGTKVEIKR
B11: humanized antibody hz208F2 H049/L021 (antibody, human IgG1, kappa, V domains shown)
VH: QVQLVQSGAEVKKPGASVKVSCKASGYTFTSYYMHWVRQAPGQGLEWMGWIWPGDGSTKYAQKFQGRVTMTRDKSSSTVYMELSSLRSEDTAVYYCASPMITPNYAMDYWGQGTLVTVSS
VL: DIQMTQSPSSLSASVGDRVTITCRASQDISKYLNWYQQKPGKAPKLLIYYTSRLHSGVPSRFSGRGSGTDFSLTISSLQPEDFATYFCQQGSTLPYTFGGGTKVEIKR
B12: humanized antibody hz208F2 H052/L018 (antibody, human IgG1, kappa, V domains shown)
VH: QVQLVQSGAEVKKPGASVKVSCKASGYTFTSYYMHWVRQAPGQGLEWMGWIWPGDGSTKYAQKFQGRVTMTRDTSTSTVYMELSSLRSEDTAVYFCASPMITPNYAMDYWGQGTLVTVSS
VL: DIQMTQSPSSLSASVGDRVTITCRASQDISKYLNWYQQKPGKAPKLLIYYTSRLQSGVPSRFSGRGSGTDYSLTISSLQPEDFATYFCQQGSTLPYTFGGGTKVEIKR
B13: humanized antibody hz208F2 H037/L018 (antibody, human IgG1, kappa, V domains shown)
VH: QVQLVQSGAEVKKPGASVKVSCKASGYTFTSYYMHWVRQAPGQGLEWMGWIWPGDGSTKYAQKFQGRVTMTRDKSSSTVYMELSSLRSEDTAVYFCASPMITPNYAMDYWGQGTLVTVSS
VL: DIQMTQSPSSLSASVGDRVTITCRASQDISKYLNWYQQKPGKAPKLLIYYTSRLQSGVPSRFSGRGSGTDYSLTISSLQPEDFATYFCQQGSTLPYTFGGGTKVEIKR
B14: humanized antibody hz208F2 H051/L018 (antibody, human IgG1, kappa, V domains shown)
VH: QVQLVQSGAEVKKPGASVKVSCKASGYTFTSYYMHWVRQAPGQGLEWMGWIWPGDGSTKYAQKFQGRVTMTRDTSSNTVYMELSSLRSEDTAVYFCASPMITPNYAMDYWGQGTLVTVSS
VL: DIQMTQSPSSLSASVGDRVTITCRASQDISKYLNWYQQKPGKAPKLLIYYTSRLQSGVPSRFSGRGSGTDYSLTISSLQPEDFATYFCQQGSTLPYTFGGGTKVEIKR
B15: humanized antibody hz208F2 H047/L018 (antibody, human IgG1, kappa, V domains shown)
VH: QVQLVQSGAEVKKPGASVKVSCKASGYTFTSYYIHWVRQAPGQGLEWMGWIWPGDGSTKYAQKFQGRVTMTRDTSSNTVYMELSSLRSEDTAVYYCASPMITPNYAMDYWGQGTLVTVSS
VL: DIQMTQSPSSLSASVGDRVTITCRASQDISKYLNWYQQKPGKAPKLLIYYTSRLQSGVPSRFSGRGSGTDYSLTISSLQPEDFATYFCQQGSTLPYTFGGGTKVEIKR
B16: humanized antibody hz208F2 H076/L018 (antibody, human IgG1, kappa, V domains shown)
VH: QVQLVQSGAEVKKPGASVKVSCKASGYTFTSYYIHWVRQAPGQGLEWMGWIWPGDGSTKYAQKFQGRVTMTRDTSTSTVYMELSSLRSEDTAVYYCASPMITPNYAMDYWGQGTLVTVSS
VL: DIQMTQSPSSLSASVGDRVTITCRASQDISKYLNWYQQKPGKAPKLLIYYTSRLQSGVPSRFSGRGSGTDYSLTISSLQPEDFATYFCQQGSTLPYTFGGGTKVEIKR

The target in one test is monkey IGF-1R on COS-7 cells (African green monkey kidney) (monkey (African green monkey)). Put plainly: FACS on Cos-7.
As for B1, the binding result is listed as “binds”.

Consider B2, for which the binding entry is “binds”.

Turning to B3, the binding result is on record as “binds”.

Regarding B4, the binding result is recorded as “binds”.

Regarding B5, the binding result is reported as “binds”.

B6: the binding result is listed as “binds”.

On to B7, for which the binding result is “binds”.

B8: the binding result is reported as “binds”.

With B9, the binding entry is “binds”.

For the molecule B10, the binding result was “binds”.

Regarding B11, the binding entry is reported as “binds”.

On to B12, for which the binding result is listed as “binds”.

B13: the binding entry is reported as “binds”.

For B14, the binding entry was “binds”.

Regarding B15, the binding result is “binds”.

Take B16: the binding entry is reported as “binds”.

The next test shares this target. The test is described as follows: FACS titration on COS-7.
Consider B1, for which the binding entry was “binds”.
